Measured values taken from patent US20250161431A1 (priority 2022, published 2025).
At least one compound was matched to its structure with a doubt left.

Tested on: mNG Δ3678 SARS-CoV-2
Assay type: cell-based

`CCC(CC)COC(=O)[C@H](C)N[P@](=O)(OC[C@H]1O[C@@](C#N)(c2ccc3c(N)ncnn23)[C@H](O)[C@@H]1O)Oc1ccccc1` [remdesivir] was tested, and the mNG-positive cells was “diminished the appearance of mNG-positive cells”.
